# Some of the results follow. Entries with a potency or affinity are not part of this list.
# Tested on: Acinetobacter baumannii
# Conditions: Concentration 32 ug.mL-1; ASSAY_TEST Inhibition of Bacterial Growth; detection method Absorption (OD600); MEDIA CAMHB; plate type 384well; NBS; CORNING #3640; time 18 hr
row,Structure (SMILES),Inhibition [%]
1,O=C(N/N=C1\CC[C@@H]2[C@H]1[C@H](OC(=O)c1ccccc1)C[C@@H]2OC(=O)c1ccccc1)c1ccncc1,6.2
2,COC(=O)CCCCCC[C@@H]1[C@@H](/C=N/NC(=O)c2ccncc2)[C@H](O)C[C@@H]1O,5.73
3,O=C1C[C@@H]2[C@@H](C=NNC(=O)c3ccncc3)[C@@H](C[C@H]2Cl)O1,13.25
4,O=C1C[C@H]2[C@H](/C=N/NC(=O)c3ccncc3)[C@H](C[C@@H]2Cl)O1,10.91
5,O=C(NNC(=O)[C@@H]1C[C@H](C(=O)O)[C@@H]2CC=C[C@@H]21)c1ccncc1,10.12
6,O=C(N/N=C1/C[C@@H]2[C@@H](C(=O)O)[C@H]1C[C@H]2Cl)c1ccncc1,13.38
7,O=C(NNC(=O)c1ccc([N+](=O)[O-])cc1C(=O)O)c1ccncc1,11.81
8,O=C(N/N=C/C[C@@H]1[C@@H](CO)[C@H](O)C[C@@H]1O)c1ccncc1,10.76
9,CC(C)(C)[Si](C)(C)O[C@H](/C=C/[C@@H]1[C@@H](CC=NNC(=O)c2ccncc2)[C@@H](O)C[C@H]1O[Si](C)(C)C(C)(C)C)CCc1ccccc1,9.23
10,O=C(NN=CC[C@H]1[C@H](CO)[C@@H](O)C[C@H]1O)c1ccncc1,4.84
11,COC(=O)CCCCCC[C@@H]1[C@@H](/C=N/NC(=O)c2ccncc2)[C@H](OC(=O)c2ccccc2)C[C@@H]1O,12.31
12,O=C(NNC(=O)c1cccc([N+](=O)[O-])c1C(=O)O)c1ccncc1,16.31
13,O=C(NNC(c1ccccc1)(c1ccccc1)c1ccccc1)c1ccncc1,3.34
14,O=C(NNC(=O)[C@@H]1C[C@H](C(=O)O)[C@@H]2CCC[C@@H]21)c1ccncc1,10.07
15,O=C(ON/N=C/[C@@H]1[C@@H]2C[C@H](Cl)[C@H]1C[C@H]2O)c1ccncc1,17.71
16,O=C(N/N=C/C[C@@H]1[C@@H](/C=N/NC(=O)c2ccncc2)[C@H](O)C[C@@H]1O)c1ccncc1,6
17,O=C(N/N=C1/C[C@@H]2[C@H](COC(c3ccccc3)(c3ccccc3)c3ccccc3)C[C@H](COC(c3ccccc3)(c3ccccc3)c3ccccc3)[C@@H]2C1)c1ccncc1,1.65
18,O=C(NN=C[C@H]1[C@H]2CC(O)OC[C@H]2C[C@H]1O)c1ccncc1 (some centres not stated),5.76
19,O=C(N/N=C1/C[C@@H]2[C@H](C1)[C@H](OC(=O)c1ccccc1)C[C@@H]2OC(=O)c1ccccc1)c1ccncc1,3.94

row,Structure (SMILES),Inhibition [%]
1,O=C(N/N=C1/C[C@H]2[C@H](CO)[C@@H]1C[C@@H]2Cl)c1ccncc1,8.22
2,O=C(NN=CC[C@@H]1[C@@H](/C=C/[C@@H](O)CCc2ccccc2)[C@H](O)C[C@@H]1O)c1ccncc1,6.33
3,O=C(N/N=C/C[C@@H]1[C@@H](/C=C/[C@@H](O)COc2cccc(Cl)c2)[C@H](O)C[C@@H]1O)c1ccncc1,9.98
4,CC(C)(C)[Si](C)(C)OCC1C2C[C@H]3C1[C@@H]3/C2=N/NC(=O)c1ccncc1 (some centres not stated),4.48
5,O=C(NN=CC[C@@H]1[C@@H](/C=C/[C@@H](O)CCc2ccccc2)[C@H](OC(=O)c2ccccc2)C[C@@H]1O)c1ccncc1,6.14
6,O=C(NN=C[C@H]1[C@@H]2CCO[C@@H]2C[C@@H]1O)c1ccncc1,8.2
7,O=C(N/N=C/[C@@H]1C[C@H](CO)[C@@H]2CCC[C@@H]21)c1ccncc1,7.3
8,CC(C)(C)[Si](C)(C)OC[C@H]1[C@H](CC=NNC(=O)c2ccncc2)[C@H](O)C[C@@H]1O[Si](C)(C)C(C)(C)C,18.94
9,O=C(N/N=C1/C2C[C@H]3C(C2C(=O)O)[C@@H]13)c1ccncc1 (some centres not stated),8.7
10,NNC(=O)c1ccncc1 [ISONIAZID],7.52
11,O=C(N/N=C/COc1cccc(Cl)c1)c1ccncc1,5.96
12,COC(=O)C[C@H]1[C@H](/C=N\NC(=O)c2ccncc2)[C@@H](O[Si](C)(C)C(C)(C)C)C[C@@H]1Cl,20.06
13,O=C(N/N=C1/C2C[C@H]3C(C2CO)[C@H]13)c1ccncc1 (some centres not stated),4.37
14,O=C(N/N=C/C[C@@H]1[C@@H](/C=C/[C@@H](O)COc2ccccc2)[C@H](O)C[C@@H]1O)c1ccncc1,10.09
15,O=C(NN=CC[C@@H]1[C@@H](COC2CCCCO2)[C@H](OC2CCCCO2)C[C@@H]1O)c1ccncc1 (some centres not stated),6.84
16,O=C(N/N=C1\C[C@@H]2[C@@H](CO)[C@H]1C[C@H]2Cl)c1ccncc1,6.24
17,O=C(N/N=C/CCCO)c1ccncc1,1.13
18,O=C(N/N=C1\C[C@@H]2[C@H](COC(c3ccccc3)(c3ccccc3)c3ccccc3)C[C@H](CO)[C@@H]2C1)c1ccncc1,4.55

# Part of the list above in order of count of non-hydrogen atoms, low to high:
row,Structure (SMILES),Inhibition [%]
11,O=C(N/N=C/COc1cccc(Cl)c1)c1ccncc1,5.96
7,O=C(N/N=C/[C@@H]1C[C@H](CO)[C@@H]2CCC[C@@H]21)c1ccncc1,7.3
14,O=C(N/N=C/C[C@@H]1[C@@H](/C=C/[C@@H](O)COc2ccccc2)[C@H](O)C[C@@H]1O)c1ccncc1,10.09

# Source: ChEMBL document CHEMBL4513156, “CO-ADD screening of NCPRI (Romania) compounds”
